## Primary screen of a compound library

The chains behind the UniProt entries cited, without tags or fusion partners. Residues count along the entry.
UniProt P9WNZ1, whole entry: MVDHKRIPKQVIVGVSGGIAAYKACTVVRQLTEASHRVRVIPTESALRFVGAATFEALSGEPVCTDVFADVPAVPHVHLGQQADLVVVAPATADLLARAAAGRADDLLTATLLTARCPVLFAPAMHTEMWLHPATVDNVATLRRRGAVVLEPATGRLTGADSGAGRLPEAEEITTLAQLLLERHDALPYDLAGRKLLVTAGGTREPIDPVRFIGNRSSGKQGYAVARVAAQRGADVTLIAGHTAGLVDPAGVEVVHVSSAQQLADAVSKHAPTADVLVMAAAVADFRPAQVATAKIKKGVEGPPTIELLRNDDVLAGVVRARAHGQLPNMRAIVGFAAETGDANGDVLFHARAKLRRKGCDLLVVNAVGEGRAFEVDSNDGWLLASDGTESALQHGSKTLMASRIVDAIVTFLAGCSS
UniProt P9WFT3, whole entry: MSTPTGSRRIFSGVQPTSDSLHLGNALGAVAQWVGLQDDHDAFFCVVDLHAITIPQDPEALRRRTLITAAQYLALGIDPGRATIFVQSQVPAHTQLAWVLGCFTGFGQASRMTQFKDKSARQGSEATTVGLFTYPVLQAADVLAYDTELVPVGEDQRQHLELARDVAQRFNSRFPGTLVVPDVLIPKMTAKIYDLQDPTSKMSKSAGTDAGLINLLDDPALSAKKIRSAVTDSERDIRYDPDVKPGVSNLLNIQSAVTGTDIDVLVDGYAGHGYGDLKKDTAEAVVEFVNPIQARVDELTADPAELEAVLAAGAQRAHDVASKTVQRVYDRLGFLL
UniProt A4I591, 1-473: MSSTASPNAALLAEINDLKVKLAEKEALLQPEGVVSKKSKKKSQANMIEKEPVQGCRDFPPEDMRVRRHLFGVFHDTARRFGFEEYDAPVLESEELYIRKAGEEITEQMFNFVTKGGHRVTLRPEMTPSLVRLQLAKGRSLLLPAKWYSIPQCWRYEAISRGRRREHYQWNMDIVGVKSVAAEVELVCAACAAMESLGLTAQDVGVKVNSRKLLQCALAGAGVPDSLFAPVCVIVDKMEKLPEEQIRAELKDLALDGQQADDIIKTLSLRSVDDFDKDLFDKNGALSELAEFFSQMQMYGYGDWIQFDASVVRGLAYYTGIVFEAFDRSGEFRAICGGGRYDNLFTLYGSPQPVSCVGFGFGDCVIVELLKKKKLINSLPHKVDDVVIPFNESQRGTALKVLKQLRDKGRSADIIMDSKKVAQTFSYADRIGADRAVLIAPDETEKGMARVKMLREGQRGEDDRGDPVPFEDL

From ChEMBL document CHEMBL3988442, “University of Dundee, Small-Polar-MMV Screening Library” (2021).

CoaBC: 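Enzyme assay of CoaBC with a phosphate dye (Biomol Green) read at 650 nm. Target: Coenzyme A biosynthesis protein CoaBC, Mycobacterium tuberculosis (UniProt P9WNZ1). Compounds at 30 µM. Higher reads as stronger inhibition, judged from the few compounds that gave an IC50. Most strong results did not repeat in a second test. About 67,000 compounds were tested under these conditions; 0.06% (about 40) showed 50% or more at least once.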
Toxoplasma: 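Assay of Toxoplasma gondii numbers, read through their beta-galactosidase reporter with a colour substrate. Tested at 10 µM. Higher reads as fewer parasites (inferred from which compounds were picked for retests). Size under these conditions: about 67,000 compounds, about 260 of them at 50% or above in at least one test.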
Leishmania in macrophages: 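Cell assay of Leishmania donovani living inside macrophages; the read-out is not stated. Tested at 30 µM. Higher reads as stronger inhibition (inferred: compounds with an IC50 in retests scored well above the rest). About 69,000 compounds were tested under these conditions; 1.5% (about 1,000) showed 50% or more at least once.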
MtTrpRS: 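Enzyme assay of tryptophanyl-tRNA synthetase; the read-out is not stated. Target: Tryptophan-tRNA ligase, Mycobacterium tuberculosis (UniProt P9WFT3). Concentration: 10 µM. Higher most likely means stronger inhibition; the record gives no direction and few retests gave an IC50. Size under these conditions: about 65,000 compounds, about 64 of them at 50% or above in at least one test.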
LiHisRS: 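Enzyme assay of histidyl-tRNA synthetase; the read-out is not stated. Target: Histidine-tRNA ligase, Leishmania infantum (UniProt A4I591). Tested at 30 µM. Direction is inferred from retests: higher values go with stronger inhibition. The assay is labelled LdHisRS but filed under L. infantum. Size under these conditions: about 69,000 compounds, about 410 of them at 50% or above in at least one test.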

Results are given as percent effect.
How 0% and 100% were set is not recorded. Most values in the screen are low, and negative values occur.
This is an unselected part of the compounds tested.
A dash means the value is not listed here; it may have been measured.

compound | CoaBC | Toxoplasma | Leishmania in macrophages | MtTrpRS | LiHisRS
CCc1nnc(NCc2cccc(OC)c2OC)o1 | -1.944% | 14.62% | 8.195% | -4.87% | -2.857%
CCn1ncc(CN2C[C@@H]3CCCN3C[C@H]2CCSC)c1C | -0.8674% | - | - | - | -58%
CC(C)CCC(=O)N1C[C@H]2CCN[C@H]2C1 | -0.3636% | - | - | - | 17.31%
Cc1ccc(N2CCC3(CCCN3Cc3ccn(C)n3)CC2)nn1 | 0.8333% | - | - | -2.045% | 19.66%
CN(Cc1cn2c(n1)CN(Cc1ccsc1)CC2)Cc1ccco1 | 3.337% | - | - | -0.834% | 13%
COc1cccc2c1ccn2CCNC(=O)C1CCC1 | 5.051% | -0.5933% | -4.494% | 5.532% | 18.42%
CC1c2ncc(CN3CCN(C)CC3)n2CCN1Cc1ccc(F)cc1 (centres unmarked) | 1.481% | - | - | -8.439% | -1.389%
COCCNC(=O)c1cc(S(=O)(=O)N2CCCCC2)cs1 | 3.947% | -2.145% | 14.3% | 4.261% | 5.714%
CS(=O)(=O)NCc1cn2c(n1)CN(Cc1cccnc1)CC2.O=C(O)C(F)(F)F.O=C(O)C(F)(F)F | - | -0.2489% | 33.92% | - | -
CC(C)=CCCC1(C)C=Cc2c(cc(C)n(CCC(=O)O)c2=O)O1 (centres unmarked) | -0.7282% | 5.018% | 7.286% | -3.453% | 8.571%
C=C(C)COc1ccccc1C(=O)NCc1nc(C)cc(=O)[nH]1 | 2.99% | 13.25% | 7.407% | 0.7322% | 18.03%
CC(C)(C)SCC(=O)Nc1cc(-n2nnnc2C2CC2)ccc1F | -2.581% | 1.189% | -15.31% | 12.71% | -1.316%
CNC(=O)N1CCc2cc(C(=O)N(C)C)c(NCC3CC3)nc2CC1.O=C(O)C(F)(F)F | - | 1.542% | 19.53% | - | -
Cc1c(C(=O)N2CCOCC2)nnn1-c1ccc2ncccc2c1 | -7.282% | -6.698% | 20.19% | -2.51% | 31.33%
CCOCCC(=O)NCC1CCCO1 (centres unmarked) | -1.843% | -5.62% | 19.59% | 1.067% | 4.651%
CN(C)c1ccc(CCCNC(=O)NCC(O)c2ccsc2)cc1 (centres unmarked) | 3.297% | -15.18% | 10.02% | -0.2329% | 5.714%
CCOc1ccc(NC(=O)c2cc3c([nH]c2=O)CCC3)cc1 | -0.5263% | 10.66% | 1.673% | -8.384% | 8.276%
c1ccc2c(OCCN3CCn4c(nnc4C4CC4)C3)cccc2c1 | 3.394% | 13.26% | 33.55% | 2.324% | 24.14%
COCC(=O)N1CC[C@@H](N2CCOCC2)[C@@H]1Cc1cccnc1 | -10.92% | 1.011% | 26.34% | -1.744% | 0%
COc1cccc(C(=O)N2CCN(C(=O)CCn3ccnc3)CC2)c1 | - | 2.982% | -5.445% | 3.818% | 11.43%
NC(=O)Cn1cc(NC(=O)NCC2CCN(c3ccccc3)C2)cn1 (centres unmarked) | 1.538% | -26.95% | 22.52% | -0.6988% | 8.571%
COC[C@@]12CCO[C@@H]1CCN(Cc1ccccc1OC)C2 | 3.202% | - | - | -5.151% | 8%
COc1cc(CNCc2ccnc(N3CCCC3)c2)cc(OC)c1 | 4.474% | - | - | -2.005% | 21.3%
Cc1nc[nH]c1CN(Cc1ccc(F)cc1)C1CC(C)(C)NC(C)(C)C1 | 1.675% | -9.847% | 43.41% | -8.464% | 2.878%
c1ccc(N2CCC(NCCc3ccc(-n4cccn4)cc3)CC2)nc1 | 2.405% | -19.55% | 62.72% | -2.441% | 10%
O=C(CC[C@@H]1CCCN2CCCC[C@H]12)N1CCC(c2nnc[nH]2)CC1 | 2.915% | - | - | -2.688% | 21.52%
CN(C)CCN(Cc1cccc(F)c1)C(=O)c1ccc2nccn2c1 | 2.177% | 10.2% | -19.41% | -0.7712% | 2.469%
Cn1c(Cn2ccnc2)nnc1C1CCN(C(=O)c2cccnc2)CC1 | 7.916% | -18.73% | 4.698% | 1.708% | 15.96%
CC(=O)N1[C@H](Cn2cncn2)C[C@@H]2CN(Cc3ccncc3)CC[C@@H]21 | 0% | - | - | -4.368% | 11.11%
CC(=O)N1CCCN(C(=O)NCCCn2cncn2)CC1 | 5.957% | -14.51% | 8.758% | -13.25% | 19.64%
CCC1CN(C(=O)c2ccc(=O)[nH]n2)CCC(=O)N1Cc1ccccc1 (centres unmarked) | -1.576% | 16.69% | -4.444% | -4.579% | 11.29%
O=C(c1ccco1)N1CCCC2(CN(Cc3ccoc3)CCO2)C1 (centres unmarked) | 3.548% | 2.586% | 33.33% | 3.067% | 25%
CNC(=O)[C@@H](c1ccccc1OC)N1CCC[C@H]1C(=O)NC1CC1.Cl | - | 7.143% | 14.35% | - | -
Cn1cc(N2CCC(NC(=O)c3ccccc3Cl)C2=O)cn1 (centres unmarked) | -4.721% | -8.87% | -40.97% | -0.4397% | 6.557%
Nc1c(N2CCCCC2)ncnc1N1CCOCC1 | 1.942% | 4.437% | -7.999% | - | 5.941%
CCOCCN1CCN(CC(O)c2ccc(F)cc2)CC1 (centres unmarked) | 2.155% | 15.53% | 39.3% | 0.7766% | 21.52%
O=C1CO[C@H]2CCN(C(=O)c3ccc4c(c3)CCCC4)CC[C@@H]2N1 | -3.679% | - | - | -7.878% | 8.696%
O=C(O)C(F)(F)F.[H][C@@]12CCN(C3CCOCC3)[C@@]1([H])CC(=O)N2Cc1csc(C)n1 | - | 9.53% | -1.598% | - | -
CCS(=O)(=O)NCCN1CCc2ccc(F)cc2C1C (centres unmarked) | -16.52% | -5.056% | 34.62% | -1.06% | 7.853%
O=C(NC1CC1)c1ccccc1NCc1cn2cccnc2n1 | 7.071% | 11.1% | -17.09% | 5.917% | 21.51%
CCC(CO)N(Cc1ccco1)Cc1c(C)nn(C)c1Cl (centres unmarked) | 2.357% | 9.437% | 16.56% | 3.484% | 20.21%
[H][C@]12CCN(C(=O)Cc3ccsc3)C[C@@]1([H])OCCN(CCN(C)C)C2 | - | -33.21% | 32.03% | - | -
CNc1cc2c(nn1)CCN(C(=O)c1ccccc1-n1cccn1)C2 | 9.41% | -10.79% | 48.53% | 2.142% | 22.89%
O=C(c1coc(CN2CCN(c3ccccc3F)CC2)n1)N1CC=CC1 | 0.369% | - | -22.86% | -6.884% | 14.52%
COCC(=O)N1CCN(Cc2coc(-c3cccc(F)c3)n2)CC1 | 3.614% | -1.059% | 5.483% | 3.437% | -10.96%
O=C(O)C(F)(F)F.[H][C@]12CN(Cc3ccoc3)C[C@@]1([H])OCCN(c1ncccn1)C2 | - | 1.062% | -0.05543% | - | -
NC(=O)CN1CCCN(C(=O)COc2cccc(F)c2)CC1 | 5.949% | -24.71% | 31.72% | 2.719% | 18.07%
CC(CO)CNC(=O)c1cc2cccc(F)c2o1 (centres unmarked) | 7.143% | 2.84% | -0.8671% | 1.144% | -0.8929%
COc1ccc(OC)c(NC(=O)N2CCCC2c2ccco2)c1 (centres unmarked) | 2.915% | -2.55% | 8.002% | -4.961% | 10.68%
COc1cccc(CNCc2cccc(Cl)c2)c1O | 2.604% | 12.06% | 3.98% | -2.184% | 10.11%
Cc1nc(C2(NCc3c(C)nn(C)c3N3CCOCC3)CCC2)no1 | 2.288% | 56.3% | 30.68% | 1.638% | 26.76%
c1cc(COC[C@@H]2CCC[C@@]23CNCCO3)ccn1 | 3.599% | - | - | -3.575% | 9.023%
CC(NC(=O)C1=NN(C)C(=O)CC1)c1ccc(Cl)cc1Cl (centres unmarked) | 13.01% | -0.8758% | 44.21% | 0.6415% | 15.38%
COCC1c2nnn(CC3CC3)c2CCN1C(=O)c1ccnnc1 (centres unmarked) | 7.93% | 5.476% | 12.85% | 2.012% | 28.3%
N#Cc1cc(S(N)(=O)=O)ccc1NC1CCc2ccc(F)cc21 (centres unmarked) | 1.768% | 2.834% | -5.001% | 3.216% | 32.46%
O=C1CC(NCc2cccc(O)c2)CN1CCc1cccc(Cl)c1 (centres unmarked) | 7.593% | 0.6364% | 24.84% | 0.2945% | -1.064%
O=C1C(NCc2nnc3n2CCCC3)CCN1c1ccccc1F (centres unmarked) | 2.302% | -4.841% | 14.33% | -5.512% | 16.51%
N#Cc1ccc(C(=O)N(C2CC2)C2CC(=O)NC2=O)cc1 (centres unmarked) | 1.899% | 6.261% | 18.7% | 1.636% | 14.29%
CCOCCC(=O)N1C[C@H]2CC[C@@H]1CN(Cc1ccncc1)C2 | 1.217% | - | - | 0.2179% | 4.444%
CN(C)S(=O)(=O)N1CCN(C(=O)c2cc(-c3ccc(Br)s3)n[nH]2)CC1 | 6.132% | 12.26% | 16.91% | -2.617% | 16.48%
Cc1cccc(NC(=O)c2csc(NCC(C)C)n2)n1 | 1.277% | -12.94% | -8.581% | -6.428% | 25.97%

8 of the entries, repeated:

With CC(=O)N1[C@H](Cn2cncn2)C[C@@H]2CN(Cc3ccncc3)CC[C@@H]21 the screen gave CoaBC: 0%; MtTrpRS: -4.368%; LiHisRS: 11.11%.
With CNC(=O)N1CCc2cc(C(=O)N(C)C)c(NCC3CC3)nc2CC1.O=C(O)C(F)(F)F the screen gave Toxoplasma: 1.542%; Leishmania in macrophages: 19.53%.
With O=C(c1ccco1)N1CCCC2(CN(Cc3ccoc3)CCO2)C1 (centres unmarked) the screen gave CoaBC: 3.548%; Toxoplasma: 2.586%; Leishmania in macrophages: 33.33%; MtTrpRS: 3.067%; LiHisRS: 25%.
With CN(Cc1cn2c(n1)CN(Cc1ccsc1)CC2)Cc1ccco1 the screen gave CoaBC: 3.337%; MtTrpRS: -0.834%; LiHisRS: 13%.
With N#Cc1cc(S(N)(=O)=O)ccc1NC1CCc2ccc(F)cc21 (centres unmarked) the screen gave CoaBC: 1.768%; Toxoplasma: 2.834%; Leishmania in macrophages: -5.001%; MtTrpRS: 3.216%; LiHisRS: 32.46%.
With COCCNC(=O)c1cc(S(=O)(=O)N2CCCCC2)cs1 the screen gave CoaBC: 3.947%; Toxoplasma: -2.145%; Leishmania in macrophages: 14.3%; MtTrpRS: 4.261%; LiHisRS: 5.714%.
With COCC(=O)N1CC[C@@H](N2CCOCC2)[C@@H]1Cc1cccnc1 the screen gave CoaBC: -10.92%; Toxoplasma: 1.011%; Leishmania in macrophages: 26.34%; MtTrpRS: -1.744%; LiHisRS: 0%.
With COc1cccc2c1ccn2CCNC(=O)C1CCC1 the screen gave CoaBC: 5.051%; Toxoplasma: -0.5933%; Leishmania in macrophages: -4.494%; MtTrpRS: 5.532%; LiHisRS: 18.42%.